# Measurements: patent US20240148684A1, “COMPOUNDS AND METHODS FOR TREATING CONGENITAL ERYTHROPOIETIC PORPHYRIA” (RUTGERS, THE STATE UNIVERSITY OF NEW JERSEY, priority 2021, published 2024)
# Test: In vitro binding of porphyrins to hydroxyapatite
# Settings: 1 mM porphyrin, 10 mg hydroxyapatite, 30 min in the dark
row,Structure (SMILES),binding to hydroxyapatite
1,"CC1=C(CCC(=O)O)c2cc3nc(cc4[nH]c(cc5[nH]c(cc1n2)c(CCC(=O)O)c5C)c(CCC(=O)O)c4C)C(CCC(=O)O)=C3C [copro-I, coproporphyrin-I dihydrochloride]",not
2,"Cl.Cl.O=C(O)CCC1=C(CC(=O)O)c2cc3nc(cc4[nH]c(cc5[nH]c(cc1n2)c(CC(=O)O)c5CCC(=O)O)c(CC(=O)O)c4CCC(=O)O)C(CC(=O)O)=C3CCC(=O)O [Uro-I, uroporphyrin-I dihydrochloride]",bound to hydroxyapatite

# Where a name gives a salt, the structure may show the parent alone.
